Where “and” joins values, the source holds several entries; their conditions need not be identical. Equal entries are not always repeated. Where two headings read alike, the source gives them in different places. The source gives many values for each of these; only a part stands here.
Biological target: M^pro (Severe acute respiratory syndrome coronavirus 2, UniProt P0DTD1)
Format: biochemical
Settings: triplicate wells
Description: Buffer: 20 mM Tris, 0.1 mM EDTA, 1 mM DTT, 200 mM NaCl pH = 7.5. For the dilution assay Nirmatrelvir[21] was used as a reversible control and LM188[54] as an irreversible control (Fig. 10).
The incubation was done at RT for 30 min in assay buffer. DMSO was used as a control. After incubation the Enzyme/Inhibitor (or DMSO) mixtures were diluted 100-fold in assay buffer.
The preincubation was done in assay buffer (20 mM Tris, 0.1 mM EDTA, 1 mM DTT, 200 mM NaCl, pH = 7.5), at RT for 30 min. After incubation the mixtures were diluted […]
proteolytic activity of the enzyme was measured as described for the enzymatic assays using the […]
activity was measured over 1 h.
Inhibition assay58. Trypsin: Enzyme: bovine trypsin purchased from Sigma-Aldrich (St. Louis, […]
Substrate: Cbz-FR-AMC purchased from Bachem (Bubendorf, Switzerland), [Substrate]: 40 µM […]
The activity against bovine trypsin was tested at 20 µM inhibitor concentration. […]

## COc1cccc2[nH]c(C(=O)N[C@@H](CC(C)C)C(=O)N[C@H](/C=C/[N+](=O)[O-])C[C@@H]3CCNC3=O)cc12 [FGA146]
Time 0 s
  Fluorescence reading (progress curve): 403 and 389 and 374
Time 30.009 s
  Fluorescence reading (progress curve): 457 and 435 and 430
Time 60.029 s
  Fluorescence reading (progress curve): 510 and 490 and 481
Time 90.04 s
  Fluorescence reading (progress curve): 564 and 538 and 539
Time 120.057 s
  Fluorescence reading (progress curve): 606 and 585 and 592
Time 150.063 s
  Fluorescence reading (progress curve): 653 and 636 and 638
Time 450.157 s
  Fluorescence reading (progress curve): 1064
Time 480.18 s
  Fluorescence reading (progress curve): 1100 and 1072 and 1106
Time 510.193 s
  Fluorescence reading (progress curve): 1118 and 1109 and 1137
Time 540.2 s
  Fluorescence reading (progress curve): 1159 and 1147 and 1167
Time 570.216 s
  Fluorescence reading (progress curve): 1196 and 1182 and 1210
Time 600.232 s
  Fluorescence reading (progress curve): 1223 and 1212 and 1242
Time 630.25 s
  Fluorescence reading (progress curve): 1265 and 1239 and 1272
Time 660.257 s
  Fluorescence reading (progress curve): 1281 and 1256 and 1292
Time 690.266 s
  Fluorescence reading (progress curve): 1325 and 1296 and 1338
Time 720.275 s
  Fluorescence reading (progress curve): 1346 and 1316 and 1367
Time 750.289 s
  Fluorescence reading (progress curve): 1368 and 1337 and 1362
Time 780.305 s
  Fluorescence reading (progress curve): 1396 and 1380 and 1375
Time 810.312 s
  Fluorescence reading (progress curve): 1422 and 1407 and 1440
Time 840.326 s
  Fluorescence reading (progress curve): 1451 and 1433 and 1470
Time 870.344 s
  Fluorescence reading (progress curve): 1477 and 1461 and 1505
Time 900.356 s
  Fluorescence reading (progress curve): 1517 and 1497
Time 930.361 s
  Fluorescence reading (progress curve): 1519 and 1483 and 1542
Time 960.372 s
  Fluorescence reading (progress curve): 1564 and 1523 and 1570
Time 990.388 s
  Fluorescence reading (progress curve): 1560 and 1546 and 1589
Time 1020.4 s
  Fluorescence reading (progress curve): 1594 and 1565 and 1602
Time 1050.42 s
  Fluorescence reading (progress curve): 1606 and 1584 and 1630
Time 1080.42 s
  Fluorescence reading (progress curve): 1634 and 1615 and 1661
Time 1110.44 s
  Fluorescence reading (progress curve): 1657 and 1611 and 1659
Time 1140.45 s
  Fluorescence reading (progress curve): 1677 and 1642 and 1683
Time 1170.46 s
  Fluorescence reading (progress curve): 1671 and 1670 and 1709
Time 1200.47 s
  Fluorescence reading (progress curve): 1707 and 1671 and 1721
Time 1230.49 s
  Fluorescence reading (progress curve): 1725 and 1711 and 1741
Time 1260.5 s
  Fluorescence reading (progress curve): 1745 and 1713 and 1747
Time 1290.52 s
  Fluorescence reading (progress curve): 1765 and 1743 and 1791
Time 1320.53 s
  Fluorescence reading (progress curve): 1802 and 1764 and 1773
Time 1350.55 s
  Fluorescence reading (progress curve): 1786 and 1749 and 1798
Time 1380.55 s
  Fluorescence reading (progress curve): 1796 and 1788 and 1805
Time 1410.56 s
  Fluorescence reading (progress curve): 1827 and 1815 and 1833
Time 1440.57 s
  Fluorescence reading (progress curve): 1849 and 1797 and 1847
Time 1470.58 s
  Fluorescence reading (progress curve): 1864 and 1834 and 1868
Time 1500.6 s
  Fluorescence reading (progress curve): 1881 and 1837 and 1879
Time 1530.61 s
  Fluorescence reading (progress curve): 1875 and 1865 and 1881
Time 1560.62 s
  Fluorescence reading (progress curve): 1906 and 1871 and 1894
Time 1590.64 s
  Fluorescence reading (progress curve): 1895 and 1888 and 1914
Time 1620.64 s
  Fluorescence reading (progress curve): 1933 and 1889 and 1908
Time 1650.65 s
  Fluorescence reading (progress curve): 1922 and 1912 and 1926
Time 1680.66 s
  Fluorescence reading (progress curve): 1949 and 1903 and 1947
Time 1710.68 s
  Fluorescence reading (progress curve): 1960 and 1934 and 1965
Time 1740.69 s
  Fluorescence reading (progress curve): 1983 and 1937 and 1986
Time 1770.7 s
  Fluorescence reading (progress curve): 1982 and 1940 and 1970
Time 1800.72 s
  Fluorescence reading (progress curve): 1994 and 1959 and 1985
Time 1830.73 s
  Fluorescence reading (progress curve): 2001 and 1976 and 2008
Time 1860.74 s
  Fluorescence reading (progress curve): 2007 and 1986 and 2024
Time 1890.75 s
  Fluorescence reading (progress curve): 2049 and 1997 and 2028
Time 1920.77 s
  Fluorescence reading (progress curve): 2040 and 1994 and 2034
Time 1950.78 s
  Fluorescence reading (progress curve): 2048 and 2016 and 2056
Time 1980.8 s
  Fluorescence reading (progress curve): 2051 and 2022 and 2053
Time 2010.81 s
  Fluorescence reading (progress curve): 2066 and 2022 and 2048
Time 2040.83 s
  Fluorescence reading (progress curve): 2074 and 2062 and 2086
Time 2070.84 s
  Fluorescence reading (progress curve): 2085 and 2041 and 2079
Time 2100.86 s
  Fluorescence reading (progress curve): 2075 and 2048 and 2095
Time 2130.86 s
  Fluorescence reading (progress curve): 2091 and 2062 and 2088
Time 2160.87 s
  Fluorescence reading (progress curve): 2124 and 2056 and 2084
Time 2190.89 s
  Fluorescence reading (progress curve): 2114 and 2066 and 2109
Time 2220.91 s
  Fluorescence reading (progress curve): 2098 and 2080 and 2128
Time 2250.92 s
  Fluorescence reading (progress curve): 2121 and 2085 and 2110
Time 2280.93 s
  Fluorescence reading (progress curve): 2135 and 2096 and 2133
Time 2310.95 s
  Fluorescence reading (progress curve): 2143 and 2083 and 2120
Time 2340.96 s
  Fluorescence reading (progress curve): 2146 and 2105 and 2123
Time 2370.96 s
  Fluorescence reading (progress curve): 2133 and 2103 and 2134
Time 2400.97 s
  Fluorescence reading (progress curve): 2150 and 2113 and 2148
Time 2430.99 s
  Fluorescence reading (progress curve): 2167 and 2117 and 2150
Time 2461.01 s
  Fluorescence reading (progress curve): 2153 and 2116 and 2151
Time 2491.03 s
  Fluorescence reading (progress curve): 2142 and 2107 and 2175
Time 2521.03 s
  Fluorescence reading (progress curve): 2167 and 2132 and 2159
Time 2551.05 s
  Fluorescence reading (progress curve): 2160 and 2135 and 2181
Time 2581.07 s
  Fluorescence reading (progress curve): 2186 and 2125 and 2187
Time 2611.08 s
  Fluorescence reading (progress curve): 2182 and 2135 and 2175
Time 2641.09 s
  Fluorescence reading (progress curve): 2197 and 2140 and 2157
Time 2671.11 s
  Fluorescence reading (progress curve): 2201 and 2144 and 2187
Time 2701.12 s
  Fluorescence reading (progress curve): 2191 and 2170 and 2184
Time 2731.13 s
  Fluorescence reading (progress curve): 2200 and 2147 and 2181
Time 2761.14 s
  Fluorescence reading (progress curve): 2199 and 2150 and 2195
Time 2791.15 s
  Fluorescence reading (progress curve): 2196 and 2168 and 2215
Time 2821.16 s
  Fluorescence reading (progress curve): 2189 and 2169 and 2202
Time 2851.18 s
  Fluorescence reading (progress curve): 2221 and 2170 and 2178
